The record followed here is paper PMC11371170.

No constants are given. Whether binding was seen depends on the method and setting.

The labels stand for the following.
B1: UBIQUITIN-SPECIFIC PROTEASE1 (enzyme, UniProt Q9FPT5 1-1083)
chain: MRFAATVSEKQSEQSVEVTEEFAVTMTEKRSCVHFDKYVDLDKLLKIIKSYQQIKCGECNERVHVKRGSRWGASNRRDWYSSSDQNCARNAIWLCLECGYYVCGDVGLPTEAQSHVMGHNRLTRHRLVIQCKNPQLRWCFSCQSLLPFDNEENGEKKDLLLEVVKLIRERSPNTYSASFETEFSCSGSIYGGIEARDGYAVRGLVNLGNTCFFNSVMQNLLSLDQLREHFLKEDLSVSGPLVSSLKELFAESNSEASVFRNEINPRDLFFSVCSQAPQFRGYQQHDSHELLRCLLDGLSIEESSLRKKLGVSDSNDSSTYQKPTLIDSVFGGEISSTVSCLECGHFSKVYEPFMDLSLPVPSMKLPPKKQQILSQAKEVLKNGAVSKDSEVVSAKPASDHNSTVPLFPSDHKIQSRPETSDNETDLVLLSDVSDTAPSTEAKGVNQILVGSTETLMHDNDRTGKTVPDKEDVRATQSNEETSASGISAVIDEAQVCGCPDLEQSSSSANQGADEELALMVADSQVLYMPYKDHLFYDDYMVAEASSSFVSGDHEPKKDYFDFSSFLDEPEIREGPVFRPLSKSEVYEAGFKADCSDDKTVSAGKGEASSSFISSDHEQNIDYVDFSSFFDEPEISERPFFRPLSKSEVSEAGFKADCSDDKTVSAGKGEASSSFVSSDHEQNIDYVDFSSFFDEPEISERPFFRPLSKSEVSEAGFMAVSGNDKTVRAGKGETFSSFMSGDNERNIDYVEFTNRIFDDRGTSERPVFGPPSKAKVSEAGFVAVSSDSDPAVLDESDSPVSVDRCLAQFTKHEILSEDNAWHCENCSKNLKLQRLREKRRTKEGLSNRWVNENGASSAFDECRDSSLNQSCIDLENGYKAAPPITKLPNCKEEESAIDDGFVGEENTKQAPITSVTETPLLGGETISSQPASDNECENWEDLAVDSEEVIVKRDARKKVLINKAPPVLTIHLKRFSQDARGRVSKLSGHVDFQEFIDLSKYMDTRCSEEDEPVYRLAGLVEHLGAMSRGHYVSYIRGGHKERRDSDTKEPNSSIWYHASDSQVRPASLEEVLRSEAYILFYERI
B2: uncharacterized F-BOX protein (FBX) (protein, UniProt Q9FL82 1-252)
chain: MFSEEVLKNVFPLLEGEDLASCMGVCKQWRDIARDDFYWKCQCAKKWPSVCKRHKPPTETYYKMYQTFSKRRLNRALPPPRLSFENLEFFIDIWSEERLVFSGLIPGVALENGIETLPLGISNVLRTHLGRPDYKMVVPAEPRFTIPLNQSVSVSVLVARNDSDKVARIINRSVFDYIDRSSYRALAFEYLDLSPCYPFISGIRAWISLLFMDVEDMNDDGLLDVFGIQLDFNDVADTKEEVLWLLDMLDWK
B3: PLANT U-BOX46 (enzyme, UniProt Q3E9F7 1-458)
chain: MADSTETNADTLRRELQKVLTEILNDGGGNDRDETEAFSGVVKAIDEAVRILTCLRKVESKIPESDISPVEVPKEFICTLSNTIMIEPVIIASGQTYEKRYITEWLKHERTCPKTKQVLSHRLWIPNHLISDLITQWCLVNKYDHQKPSDELVAELFTSDIEALLQRVSSSSSVADQIEAAKELRHQTKKFPNVRVFFVAGIHDSITRLLSPLSTLDEAVDSSLELQENIVTALFNLSILESNKTVIAENCLVIPLLTKSLKQGTDETRRNAAATLSSLSAIDSNKIIIGNSEAVKALIDLIEEGDLLATKEATSTVFNLCIVLENKGKVVSAGLIHAATKKIKAGSNVDELLSLLALISTHNRAVEEMDKLGFIYDLFSILRKPSSLLTGENAVVIVFNMYDRNRDRSRLKVVGEEENQHGTFTKLAKQGSVRAARKAQGILQWIKRFVTGKEPQRA
B4: PLANT U-BOX36 (enzyme, UniProt Q8GZ84 1-435)
chain: MTLKIPIQEMVKMVGSLRSHGIDIPESMEINKKEKIYVAVTEKDLESKSSLVWAIQNSGGKEFCIVHVHQPIPGEMFHEQKLRLYRKEKDKAHKNSEKYLQICRQMQVTAEIIYIETDSVEKGILQLISQRGVTKLVMGAAADRHYSMRMRDLKSKKAIYIHREAPATCLIWFTCNGYLICSREARRANNLYLECASSNSLSQSDITRGTESIVKDDDHLIKLAVTEAEASKRKARFEACKREEAEKTAVDALKKAKQWENVYFEELKQRKETEKALRKRNDELEKMRSESETQITESYTVIRKLQEKNNLSMETFRGIREEQEELKIKLREVSKLKGKREEEEASTSNHREPPQYFICPITHDIMEDPHVAADGFTYEGEAISRWFERGHETSPMINKRLPHTSLVPNLALRSAIQEWLQLRELLNRPSACREI

The assay deals with T1, VASCULAR-RELATED NAC-DOMAIN7 (Arabidopsis thaliana) (UniProt Q9C8W9).
T1 sequence: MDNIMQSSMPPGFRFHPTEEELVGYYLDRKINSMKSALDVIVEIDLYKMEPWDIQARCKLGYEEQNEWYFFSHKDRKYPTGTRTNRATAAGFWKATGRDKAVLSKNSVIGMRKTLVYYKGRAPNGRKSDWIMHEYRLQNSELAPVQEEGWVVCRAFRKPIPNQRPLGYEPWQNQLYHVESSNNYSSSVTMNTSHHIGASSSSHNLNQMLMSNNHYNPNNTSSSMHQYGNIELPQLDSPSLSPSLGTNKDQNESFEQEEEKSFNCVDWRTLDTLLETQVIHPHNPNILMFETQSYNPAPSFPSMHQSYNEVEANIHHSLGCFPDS
As to the kind of experiment: two-hybrid; Gal4 system, pAD-GAL4-GWRFC and pBD-GAL4-GWRFC fusions in S. cerevisiae AH109; growth at 30 °C on minimal SD medium lacking tryptophan and leucine, or tryptophan, leucine and histidine; repeated 3 times.
Consider B1, for which the binding result was “no binding”.
With B2, the binding result is “no binding”.
Regarding B3, the binding entry was “no binding”.
B4: the binding result is “no binding”.
